PubChem BioAssay AID1159578 | Peter MacCallum Cancer Centre | 2015
In all, the deposit lists about 18,000 reagents; this is a part drawn at random. In the full data, about 1,030 (5.7%) were called active. 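Inactive calls also include pools with fewer than 3300 nuclei, whose migration was not assessed.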 The raw values are shown without normalisation. A number with no mark means an inactive call. Further read-outs or replicates are left out here. No sequences are given here.

Aim: 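Genome-wide hunt for genes controlling movement of lymphatic endothelial cells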 (primary screen)
System: human lymphatic endothelial cells
Reagents: siRNA pool against human genes, 40 nM
Timing: 48 h after transfection
Measurement: 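High-content imaging of dye-stained cells in a scratch assay measures filled wound area and nuclei per well; duplicate means given as ratio to mock and robust z-score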
Scale: migration robust z-score: higher = faster migration into the scratch; nuclei per well: higher = more cells in the well
Call rule: 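Pools averaging fewer than 3300 nuclei are never called; remaining pools count as changed when migration robust z lies outside -2 to 2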
Calls: active = migration changed; inactive = no migration change, or too few cells

gene | migration robust z-score | nuclei per well, duplicate mean
SIM2 | -1.24 | 6085
ARF3 | 1.84 | 5536
AASS | 0 | 6262
GLT6D1 | -0.68 | 6042
SLC1A3 | -2.15 (active) | 3756
TMEM236 | 0.88 | 6220
HNF1A | -0.96 | 5373
PTPRN2 | -0.28 | 6481
IKZF5 | 0.2 | 5236
OSTM1 | 0.52 | 5625
IL1A | -1.58 | 5404
ZNF99 | 0.09 | 5858
NBR1 | 0.6 | 5538
COA8 | 0.37 | 6116
IL1RAPL2 | 0.52 | 5994
RBBP6 | 1.42 | 6270
LEMD3 | 1.29 | 6178
THSD1 | 0.21 | 5816
CLCN7 | -3.19 (active) | 3958
PALS2 | -1.06 | 5697
PLSCR2 | -0.99 | 6420
ADH5 | 0.5 | 6391
SLC6A17 | 0.39 | 6035
BCAT2 | -0.65 | 7559

Entries listed so far whose gene name begins with C or c (2):
gene | migration robust z-score | nuclei per well, duplicate mean
COA8 | 0.37 | 6116
CLCN7 | -3.19 (active) | 3958

The list goes on:
gene | migration robust z-score | nuclei per well, duplicate mean
PTX4 | 0.78 | 5214
D2HGDH | -0.35 | 5724
NYNRIN | 0.93 | 4679
HDX | 1.31 | 5480
UIMC1 | -1.57 | 4486
CFAP221 | 2.02 (active) | 5448
VSIG10 | 1.08 | 6627
HS3ST3B1 | 0.36 | 4890
ZNF165 | 0.72 | 5615
TAS2R20 | -0.48 | 4850
GPSM3 | 1.2 | 7006
IZUMO4 | 0.67 | 5151
NRN1 | 1.26 | 5933
TIMM13 | -0.5 | 4560
RNF182 | 0.55 | 6582
